# Measurements reported in the supplement of paper PMC8728848.
# Some of the results follow.
# B1: MIC2 (Toxoplasma gondii), S8F9G8 (protein)
# chain: MRLQREAVFGLMFACGMWMWPSEVAGGGWSIVDALRKRYDTSRGGDANGVDTSGVEDVIQSESAIGAAEGCTNQLDICFLIDSSGSIGIQNFRLVKQFLHTFLMVLPIGPEEVNNAVVTYSTDVHLQWDLQSPNAVDKQLAAHAVLDMPYKKGSTNTSDGLKACKQILFTGSRPGREHVPKLVIGMTDGESDSDFRTVRAAKEIRELGGIVTVLAVGHYVKHSECRSMCGCSGTSDDDSPCPLYLRADWGQLATAIKPMLKEVCKTLPQDAICSDWSAWSPCSVSCGDGSQIRTRTEVSAPQPGTPTCPDCPAPMGRTCVEQGGLEEIRECSAGVCAVDAGCGVWGEWSAWSASCGNATRKRERTRYNDPPPQGAGRRCENQDPPVLQEQTEEATLAPCITIPPTPPEWAAWSDCTVTCGGGNRHRVRNALPPGLGSQNGESDESLVSKLWPGTDLRQEEACNTSPCPINATCGQFEEWSTCSVSCGGGLKTRSRNPWNEDQQHGGLSCEQQHPGGRTETITCNPQACPVDERPGEWAEWGECSVTCGDGVRERRRGKSLVEAKFGGRTIDQQNEALPEDLKIKNVEYEPCSYPACGASCTYVWSDWNKCVCPMGYQARHAAVKFDYRNKPCDLPTFETKACSCGETNPVPSEGTTPGAPGATGPEQPNQRPLPEGSDENETPTNEEGEQSKKESGSGIAGAIAGGVIGGLILLGAAGGASYHYYLSSSVGSPSAEIEYEADDGATKVVMEEEKETLVPVDDDSDMWME
# Columns and labels:
# Experiment in all cases: glycan array binding signal (z-score within array); higher = stronger binding
# Conditions in all cases: glycan notation: IUPAC condensed, linker removed
# [1] = target: GlcNAc6S(b1-3)Gal(b1-4)GlcNAc
# Procedure, shortened: (§1)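 Glycan array data were curated from 3228 arrays in the Consortium for Functional Glycomics database and kept only where the protein sequence was available. Glycan names were converted to IUPAC-condensed notation, and columns mapping to the same glycan were averaged. The binding signal is a within-array Z-score, averaged across arrays of the same protein sequence at different concentrations or buffers and across linkers. Negative Z-scores can be read as non-binding.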
# [2] = target: Kdn(a2-3)Gal(b1-3)GalNAc
# Procedure, shortened: as §1
# [3] = target: Kdn(a2-3)Gal(b1-3)GlcNAc
# Procedure, shortened: as §1
# [4] = target: Kdn(a2-3)Gal(b1-4)Glc
# Procedure, shortened: as §1
# [5] = target: Kdn(a2-3)Gal(b1-4)GlcNAc
# Procedure, shortened: as §1
# [6] = target: Kdn(a2-3)Gal(b1-4)[Fuc(a1-3)]GlcNAc
# Procedure, shortened: as §1
# [7] = target: Kdn(a2-6)Gal(b1-4)GlcNAc
# Procedure, shortened: as §1
# [8] = target: Man(a1-2)Man(a1-2)Man(a1-3)Man
# Procedure, shortened: as §1
# [9] = target: Man(a1-2)Man(a1-2)Man(a1-6)[Man(a1-3)]Man
# Procedure, shortened: as §1
# [10] = target: Man(a1-2)Man(a1-3)Man
# Procedure, shortened: as §1
# [11] = target: Man(a1-2)Man(a1-3)[Man(a1-2)Man(a1-6)]Man
# Procedure, shortened: as §1
# [12] = target: Man(a1-2)Man(a1-3)[Man(a1-2)Man(a1-6)]Man(a1-6)[Man(a1-2)Man(a1-2)Man(a1-3)]Man
# Procedure, shortened: as §1
# [13] = target: Man(a1-2)Man(a1-3)[Man(a1-2)Man(a1-6)]Man(a1-6)[Man(a1-2)Man(a1-2)Man(a1-3)]Man(b1-4)GlcNAc(b1-4)GlcNAc
# Procedure, shortened: as §1
# [14] = target: Man(a1-2)Man(a1-3)[Man(a1-6)]Man(a1-6)[Man(a1-2)Man(a1-3)]Man(b1-4)GlcNAc(b1-4)GlcNAc
# Procedure, shortened: as §1
# [15] = target: Man(a1-2)Man(a1-6)[Man(a1-3)]Man(a1-6)[Man(a1-2)Man(a1-2)Man(a1-3)]Man
# Procedure, shortened: as §1
# [16] = target: Man(a1-2)Man(a1-6)[Man(a1-3)]Man(a1-6)[Man(a1-2)Man(a1-2)Man(a1-3)]Man(b1-4)GlcNAc(b1-4)GlcNAc
# Procedure, shortened: as §1
# [17] = target: Man(a1-3)[Man(a1-6)]Man
# Procedure, shortened: as §1
# [18] = target: Man(a1-3)[Man(a1-6)]Man(a1-6)[Man(a1-2)Man(a1-3)]Man(b1-4)GlcNAc(b1-4)GlcNAc
# Procedure, shortened: as §1
# [19] = target: Man(a1-3)[Man(a1-6)]Man(a1-6)[Man(a1-3)]Man
# Procedure, shortened: as §1
# [20] = target: Man(a1-3)[Man(a1-6)]Man(a1-6)[Man(a1-3)]Man(b1-4)GlcNAc(b1-4)GlcNAc
# Procedure, shortened: as §1
# [21] = target: Man(a1-3)[Man(a1-6)]Man(b1-4)GlcNAc(b1-4)GlcNAc
# Procedure, shortened: as §1
# [22] = target: Man(a1-6)Man
# Procedure, shortened: as §1
# [23] = target: Man(b1-4)GlcNAc
# Procedure, shortened: as §1
# [24] = target: Neu5Ac(a2-3)Gal
# Procedure, shortened: as §1
# [25] = target: Neu5Ac(a2-3)Gal(b1-3)GalNAc
# Procedure, shortened: as §1
# [26] = target: Neu5Ac(a2-3)Gal(b1-3)GalNAc(b1-3)Gal(a1-4)Gal(b1-4)Glc
# Procedure, shortened: as §1
# [27] = target: Neu5Ac(a2-3)Gal(b1-3)GalNAc(b1-4)[Neu5Ac(a2-3)]Gal(b1-4)Glc
# Procedure, shortened: as §1
# [28] = target: Neu5Ac(a2-3)Gal(b1-3)GalNAc6S
# Procedure, shortened: as §1
# [29] = target: Neu5Ac(a2-3)Gal(b1-3)GlcNAc
# Procedure, shortened: as §1
# [30] = target: Neu5Ac(a2-3)Gal(b1-3)GlcNAc(b1-2)Man(a1-3)[Neu5Ac(a2-3)Gal(b1-3)GlcNAc(b1-2)Man(a1-6)]Man(b1-4)GlcNAc(b1-4)GlcNAc
# Procedure, shortened: as §1
binder,measurement,setting,value
B1,glycan array binding signal (z-score),[1],0.158
same,glycan array binding signal (z-score),[2],-0.355
same,glycan array binding signal (z-score),[3],-0.014
same,glycan array binding signal (z-score),[4],-0.475
same,glycan array binding signal (z-score),[5],0.304
same,glycan array binding signal (z-score),[6],2.02
same,glycan array binding signal (z-score),[7],-0.171
same,glycan array binding signal (z-score),[8],-0.235
same,glycan array binding signal (z-score),[9],-0.891
same,glycan array binding signal (z-score),[10],-0.444
same,glycan array binding signal (z-score),[11],-0.278
same,glycan array binding signal (z-score),[12],-0.307
same,glycan array binding signal (z-score),[13],0.876
same,glycan array binding signal (z-score),[14],-0.97
same,glycan array binding signal (z-score),[15],-0.016
same,glycan array binding signal (z-score),[16],-0.803
same,glycan array binding signal (z-score),[17],-0.69
same,glycan array binding signal (z-score),[18],0.527
same,glycan array binding signal (z-score),[19],-0.461
same,glycan array binding signal (z-score),[20],0.61
same,glycan array binding signal (z-score),[21],-0.561
same,glycan array binding signal (z-score),[22],-0.81
same,glycan array binding signal (z-score),[23],0.368
same,glycan array binding signal (z-score),[24],0.102
same,glycan array binding signal (z-score),[25],-0.321
same,glycan array binding signal (z-score),[26],0.008
same,glycan array binding signal (z-score),[27],0.556
same,glycan array binding signal (z-score),[28],-0.446
same,glycan array binding signal (z-score),[29],-0.254
same,glycan array binding signal (z-score),[30],-1.07

# An excerpt of these results, with tabs.
binder	measurement	setting	value
B1	glycan array binding signal (z-score)	[21]	-0.561
same	glycan array binding signal (z-score)	[22]	-0.81
